Laboratory results from US12458630.
These are yes or no findings as the source states them, for the method shown. Binding seen in cells or lysates may run through a third protein. Some entries that bind do so weakly or less than the wild type. Tags and fused reporters may be left off the sequences shown.

Tests used:
[1] = biological target: T1, Flag-STX17 (Flag-tagged syntaxin 17), P56962; test: co-IP, MIA PaCa-2 lysate (FIG. 1E); conditions: remark: other sources report otherwise
T1 chain: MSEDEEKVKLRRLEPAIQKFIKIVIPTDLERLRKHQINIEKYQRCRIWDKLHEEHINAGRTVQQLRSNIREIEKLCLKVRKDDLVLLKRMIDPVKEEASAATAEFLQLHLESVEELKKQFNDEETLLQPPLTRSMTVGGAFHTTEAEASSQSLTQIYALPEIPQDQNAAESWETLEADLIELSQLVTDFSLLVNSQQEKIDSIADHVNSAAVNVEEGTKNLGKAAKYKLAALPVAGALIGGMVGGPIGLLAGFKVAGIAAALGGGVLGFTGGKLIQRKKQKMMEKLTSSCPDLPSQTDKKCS

[2] = biological target: T1, Flag-STX17 (Flag-tagged syntaxin 17), …; test: co-IP, WT and IKKα KD MIA PaCa-2 cells (FIG. 6A); conditions: remark: other sources report otherwise

B1: endogenous VAMP8 of MIA PaCa-2 cells, Q9BV40 1-100 (protein, human, UniProt Q9BV40 1-100, looked up)
chain: MEEASEGGGNDRVRNLQSEVEGVKNIMTQNVERILARGENLEHLRNKTEDLEATSEHFKTTSQKVARKFWWKNVKMIVLICVIVFIIILFIVLFATGAFS
[1]
  binding: binds
[2]
  binding: binds
